Results published in patent US20090156496A1, “METHODS AND COMPOSITIONS FOR TREATING AND PREVENTING PERIPHERAL NERVE DAMAGE” (CHILDREN'S MEDICAL CENTER CORPORATION, INC., priority 2006, published 2009).
At least one structure is not confirmed: it was looked up by name or label, or the drawing left a doubt.

Legend:
DRG neurons = assay: neurite outgrowth of naive DRG neurons in culture; assay type: cell-based, rat; conditions: 3 d culture
Experimental: L4-L5 DRGs from adult male Sprague-Dawley rats (250-300 g) were injected with 5 μl of saline or oncomodulin (200 ng μl^−1). After 7 d, injected ganglia were dissected and single-cell suspensions were prepared as described^50. Cells were cultured on laminin (Sigma) with or without CSPGs (Chemicon) for 20 h or 40 h. In some cases, chondroitinase ABC (0.5 U ml^−1, Seikagaku) was added. Neurite outgrowth was visualized by Tuj1 antibody to class III β-tubulin (1:5,000, Babco) and quantified in quadruplicate samples by a blinded observer. In other studies, L4-L5 DRG neurons were cultured in the presence of absence of oncomodulin, mannose and/or forskolin in RPMI-1640 to limit spontaneous outgrowth. Cells were fixed and immunostained after 3 d and evaluated for outgrowth.

RGCs = assay: axon outgrowth in primary adult retinal cultures; assay type: cell-based, rat; conditions: PD98059 5 μM, LY 294002 20 μM, Jaki 20 nM, KN93 10 μM, KN92 10 μM, ActD 8 nM
Experimental: Protein A beads (Sigma) were incubated with either rabbit anti-OM antiserum (Swant) or normal rabbit serum (Invitrogen) for 16 h at 4° C. After extensive rinsing, beads with adsorbed IgGs were mixed with MCM (1 ml 10× concentrate, collected 8 h after zymosan treatment) for 24 h at 4° C. and then pelleted down by centrifugation. We tested 5 μl of the supernatants or untreated MCM for oncomodulin by western blotting. Bioactivity of immune-depleted and control MCM was tested in dissociated RGC cultures as described below at a 1:4 dilution, a concentration found to give a near-maximal response.
Adult rat retinal cultures were prepared as described^21. […] One week later, retinas were dissected, dissociated, and the cells plated in defined, serum-free medium. Axon growth (% RGCs extending axons ≧30 μm, ≧70 μm or ≧140 μm in length) was evaluated after 3 d in quadruplicate samples in a blinded fashion. All experiments were repeated at least three separate times. In some instances, cells were immunostained with GAP-43 antibody (1:500, Chemicon).

Structure (SMILES)	effect of added agent on oncomodulin's effect in untreated DRG neurons (DRG neurons)	effect of inhibitor on oncomodulin-induced axon outgrowth (RGCs)
C=C[C@@]1(C)CC(=O)[C@]2(O)[C@@]3(C)[C@@H](O)CCC(C)(C)[C@@H]3[C@H](O)[C@H](OC(C)=O)[C@@]2(C)O1 [forskolin, reference compound]	enhanced with forskolin	–
O=c1cc(N2CCOCC2)oc2c(-c3ccccc3)cccc12 [LY 294002]	–	not blocked
